Results deposited as PubChem BioAssay AID1224828 (NIAID, 2016)
This is an unselected part of about 17,000 deposited reagents. Over the whole deposit, 762 (4.5%) are marked active. 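Active calls include both raised and lowered p65 entry, mostly lowered; wells with fewer than 50 cells lack a z-score.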 Raw values are not corrected between plates. A number with no mark means an inactive call. Reagent sequences are not shown.

Test: 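Regulators linking TLR4 signalling to p65 nuclear translocation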 (primary screen)
Cells: mouse RAW264.7 G9 macrophage reporter cells (GFP-p65, Tnf promoter-mCherry)
Reagent: siRNA pool against mouse genes, 100 nM
Time to read-out: 2 days siRNA transfection, then 40 min LPS before fixation
Conditions: LPS (Salmonella minnesota R595) at 10 ng/ml
Read-out: 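Imaged p65 nuclear translocation ratio, normalised to the plate median, converted to robust z-scores and averaged across two replicates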
Scale: p65 translocation robust z-score: higher = more nuclear NF-kappaB p65 after LPS than the plate median; nuclear/cytoplasmic p65 ratio: higher = more nuclear NF-kappaB p65
Rule for the call: 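Called active when z exceeds 3.3 or falls under -1.56 (median of Tlr4 controls), giving activity score of at least 50; no calls for control wells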
Calls: active = hit (p65 shift raised or lowered); inactive = no clear change

Cercam (GeneID 99151) [SID315476166]: p65 translocation robust z-score = -1.34; nuclear/cytoplasmic p65 ratio, rep 1 = 1.39; nuclear/cytoplasmic p65 ratio, rep 2 = 1.43; low cell count flag = enough cells to score
Trpm8 (GeneID 171382) [SID315477359]: p65 translocation robust z-score = 0.52; nuclear/cytoplasmic p65 ratio, rep 1 = 1.6; nuclear/cytoplasmic p65 ratio, rep 2 = 1.56; low cell count flag = enough cells to score
Pak1ip1 (GeneID 68083) [SID315473403]: p65 translocation robust z-score = 0.04; nuclear/cytoplasmic p65 ratio, rep 1 = 1.39; nuclear/cytoplasmic p65 ratio, rep 2 = 1.29; low cell count flag = enough cells to score
Ptp4a1 (GeneID 19243) [SID315468791]: p65 translocation robust z-score = 0.05; nuclear/cytoplasmic p65 ratio, rep 1 = 1.48; nuclear/cytoplasmic p65 ratio, rep 2 = 1.43; low cell count flag = enough cells to score
Gipc1 (GeneID 67903) [SID315473302]: nuclear/cytoplasmic p65 ratio, rep 1 = 1.47; nuclear/cytoplasmic p65 ratio, rep 2 = 1.07; low cell count flag = fewer than 50 cells per well; well left out of scoring

Next part; the last 2 above are carried over.
Ptp4a1 (GeneID 19243) [SID315468791]: p65 translocation robust z-score = 0.05; nuclear/cytoplasmic p65 ratio, rep 1 = 1.48; nuclear/cytoplasmic p65 ratio, rep 2 = 1.43; low cell count flag = enough cells to score
Gipc1 (GeneID 67903) [SID315473302]: nuclear/cytoplasmic p65 ratio, rep 1 = 1.47; nuclear/cytoplasmic p65 ratio, rep 2 = 1.07; low cell count flag = fewer than 50 cells per well; well left out of scoring
Pheta1 (GeneID 231717) [SID315478920]: nuclear/cytoplasmic p65 ratio, rep 1 = 1.73; nuclear/cytoplasmic p65 ratio, rep 2 = 2.36; low cell count flag = fewer than 50 cells per well; well left out of scoring
Or5b102 (GeneID 258687) [SID315480339]: p65 translocation robust z-score = -1.04; nuclear/cytoplasmic p65 ratio, rep 1 = 1.43; nuclear/cytoplasmic p65 ratio, rep 2 = 1.3; low cell count flag = enough cells to score
Sra1 (GeneID 24068) [SID315470311]: p65 translocation robust z-score = 0.07; nuclear/cytoplasmic p65 ratio, rep 1 = 1.4; nuclear/cytoplasmic p65 ratio, rep 2 = 1.26; low cell count flag = enough cells to score
Pcsk6 (GeneID 18553) [SID315468419]: p65 translocation robust z-score = 1.76; nuclear/cytoplasmic p65 ratio, rep 1 = 1.69; nuclear/cytoplasmic p65 ratio, rep 2 = 1.64; low cell count flag = enough cells to score
Kcnk18 (GeneID 332396) [SID315481649]: p65 translocation robust z-score = 2.47; nuclear/cytoplasmic p65 ratio, rep 1 = 2; nuclear/cytoplasmic p65 ratio, rep 2 = 1.92; low cell count flag = enough cells to score
Tex101 (GeneID 56746) [SID315471669]: nuclear/cytoplasmic p65 ratio, rep 1 = 1.06; nuclear/cytoplasmic p65 ratio, rep 2 = 1.14; low cell count flag = fewer than 50 cells per well; well left out of scoring
St3gal2 (GeneID 20444) [SID315469238]: p65 translocation robust z-score = 1.53; nuclear/cytoplasmic p65 ratio, rep 1 = 1.61; nuclear/cytoplasmic p65 ratio, rep 2 = 1.43; low cell count flag = enough cells to score
Pgam2 (GeneID 56012) [SID315471338]: p65 translocation robust z-score = -2.01 (active); nuclear/cytoplasmic p65 ratio, rep 1 = 1.15; nuclear/cytoplasmic p65 ratio, rep 2 = 1.14; low cell count flag = enough cells to score
Pir (GeneID 69656) [SID315473859]: p65 translocation robust z-score = -0.28; nuclear/cytoplasmic p65 ratio, rep 1 = 1.51; nuclear/cytoplasmic p65 ratio, rep 2 = 1.63; low cell count flag = enough cells to score
